The values below come from PMC10778249.

Protein sequences, listed by entry. Tags and fused reporters are not part of them. Lines headed by an entry give the natural chain unless they say otherwise; changes in a name come on top. Chains listed by the source or under a name are the forms on record and can include a tag or linker.
UniProt Q14790: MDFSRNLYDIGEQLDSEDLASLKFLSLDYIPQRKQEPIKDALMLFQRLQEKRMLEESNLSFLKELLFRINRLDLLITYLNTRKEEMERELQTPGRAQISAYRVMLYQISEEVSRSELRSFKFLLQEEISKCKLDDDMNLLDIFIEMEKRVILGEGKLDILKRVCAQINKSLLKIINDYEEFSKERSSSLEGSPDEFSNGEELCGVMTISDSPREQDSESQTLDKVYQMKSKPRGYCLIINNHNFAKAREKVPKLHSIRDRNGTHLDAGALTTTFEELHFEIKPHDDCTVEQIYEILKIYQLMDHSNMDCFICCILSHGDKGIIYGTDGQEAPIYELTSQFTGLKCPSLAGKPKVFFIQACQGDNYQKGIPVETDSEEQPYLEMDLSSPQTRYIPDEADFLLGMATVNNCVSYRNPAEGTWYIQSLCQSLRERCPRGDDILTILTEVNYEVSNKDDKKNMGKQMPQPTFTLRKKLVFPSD
CDK9 isoform p55 (P50750-2, form named): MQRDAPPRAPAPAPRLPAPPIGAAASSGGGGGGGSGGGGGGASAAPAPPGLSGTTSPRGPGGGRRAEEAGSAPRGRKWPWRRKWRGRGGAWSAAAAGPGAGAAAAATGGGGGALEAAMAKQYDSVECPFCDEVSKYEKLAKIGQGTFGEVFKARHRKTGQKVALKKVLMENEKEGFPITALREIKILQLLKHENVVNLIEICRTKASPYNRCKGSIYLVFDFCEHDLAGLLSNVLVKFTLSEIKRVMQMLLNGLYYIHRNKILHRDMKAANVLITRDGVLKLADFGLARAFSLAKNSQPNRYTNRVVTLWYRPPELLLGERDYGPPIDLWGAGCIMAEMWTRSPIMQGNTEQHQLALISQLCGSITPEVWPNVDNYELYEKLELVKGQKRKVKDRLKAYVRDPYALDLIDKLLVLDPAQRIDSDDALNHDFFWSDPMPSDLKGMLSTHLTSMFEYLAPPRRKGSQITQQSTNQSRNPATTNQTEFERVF

These are yes or no findings as the source states them, for the method shown. Binding seen in cells or lysates may run through a third protein. Some results given as binding are weak or reduced against the parent protein; the word gives no strength.

The test concerns the target Caspase-8 (human (endogenous in OVCAR-8)) (UniProt Q14790). Kind of test: co-IP; OVCAR-8 wt cells separated into cytosolic and nuclear fractions; anti-Caspase-8 co-IP; blotted for pCDK9, CDK9 and Cyclin T.

For “CDK9 isoform p55 (from UniProt P50750-2 1-489) (enzyme)”, the binding result is given as “binds”.
